From PubChem BioAssay AID1345085 (National Center for Advancing Translational Sciences (NCATS), 2018)
The inconclusive results got no clear call from the source; some entries with a clear call stand among them for comparison. Potencies beside an inconclusive call are fits to weak or partial responses and may not hold up. Activity calls are given as the source filed them. Calls follow the shape of the dose curve; as a rule, active = well fitted cell-killing curve with a large enough effect; inconclusive = small, poorly fitted or top-dose-only effect, or effect the other way; inactive = no such curve, though single readings can be large or run the other way.

Test system: C33A
Assay: Confirmatory qHTS for gynecologic anti-cancer compounds from libraries of approved drugs and bioactive compounds; also: nearly all actives have a fitted effect of over 55% in size
Details: gynecologic cancer cell panel viability, ATPlite luminescence, 48 h; series mostly up to 57.6 µM; activity change, negative = viability loss: at the top concentration
Text: National Center for Advancing Translational Sciences [NCATS] Assay Overview: Chemotherapeutic drug responses vary from cancer to cancer and from patient to patient. These variations could be caused by a number of factors including patient genomic background, tumor mutations, tumor heterogeneity, and aspects of drug treatment. Chemotherapeutic drug resistance is also a common issue and can lead to ineffective treatment and patient death. Here we have profiled the cell killing effects of thousands of compounds to characterize the responses in three gynecological cancers, identify cancer-selective compounds, and understand the diversity of responses to these compounds from pan-cancer suppressors to single cell line selective compounds. In this assay, we screened a 7,914 compound drug library that included approved drug and bioactive compounds in six ovarian, three cervical, and two placental cancer cell lines using the ATPlite assay for cell viability. ATPlite is a luminescence based assay reliant on the conversion of a luciferase substrate to light in the presence of ATP. As a cytotoxic compound will suppress growth and decrease the number of cells, the concentration of ATP will decrease, and less light signal will be detected in the well. Hits were selected from the primary screen for follow-up confirmation. For the confirmation screens, the ovarian cancer cell lines included CAOV-3, SK-OV-3, SW 626, ES-2, PA-1, and TOV-21G. The cervical cancer cell lines included HeLa, Ca Ski, and C-33 A. The placental cancer cell lines included JEG-3 and JAR. HEK 293T cells were used as the control cell line to determine the selectivity index. The ATPlite assay was used to determine the IC50 values.
Assay Protocol Summary: 1,000 cells in 4 uL of media were dispensed into white, solid bottom 1536-well plates using a Multidrop Combi (Thermo Scientific). The Assay plates were incubated for 16 hours at 37 C with 5% CO2 in assay plates, followed by the addition of 23 nL of DMSO or drug dissolved in DMSO. . Each compound was assayed in 11 concentrations (1:3 dilution) from 57.5 uM to 0.977 nM, using the automated Wako 1536 Pin Tool workstation and incubated at 37 C with 5% CO2 48 hours. 4 uL of ATPlite, the ATP monitoring reagent, was then added to the each well of the assay plates using the Multidrop Combi reagent dispenser followed by incubation for 15 minutes at room temperature. The resulting luminescence was measured using the ViewLux plate reader.
% is scaled to controls: 0 for no effect and ±100 for the full control effect; potency is read from the fitted curve at half-maximal effect.

| SMILES | activity change, negative = viability loss | Potency |
| --- | --- | --- |
| CCN1CCN(C(=O)Cc2ccc(Nc3ncc(F)c(Nc4ccc(C(=O)Nc5ccccc5Cl)cc4)n3)cc2)CC1 | inactive: -12.3% | – |
| O=C(O)Cc1ccccc1 | – | inconclusive: 1720 nM [cytotoxic, single point] |
| C[C@H]1CCC/C=C/C2C[C@H](O)C[C@H]2[C@H](O)/C=C/C(=O)O1 (stereo partly drawn) | – | inconclusive: 344 nM [cytotoxic, full curve] |
| C=C(C)[C@H]1Cc2c(ccc3c2O[C@@H]2COc4cc(OC)c(OC)cc4[C@@H]2C3=O)O1 | – | inconclusive: 769 nM [cytotoxic, full curve] |
| CCNC(=O)C[C@@H]1N=C(c2ccc(Cl)cc2)c2cc(OC)ccc2-n2c(C)nnc21 | inactive: -5.6% | – |
| C/C=C(/C)C(=O)O[C@H]1C(C)=C2[C@H]([C@@H]1OC(=O)CCCCCCC)[C@@](C)(OC(C)=O)C[C@H](OC(=O)CCC)[C@@]1(O)[C@H]2OC(=O)[C@@]1(C)O | – | active: 21700 nM |
| CCOc1ccccc1-n1c(C(C)N2CCN(C(=O)COc3ccc(Cl)cc3)CC2)nc2ccccc2c1=O (stereo not drawn) | – | inconclusive: 769 nM [rising, partial curve, poor fit] |
| CCC(=O)O[C@H]1CC[C@H]2[C@@H]3CCC4=CC(=O)CC[C@]4(C)[C@H]3CC[C@]12C | inactive: 2.88% | – |
